# Structures can show the parent of a compound that is named as a salt. The data scatter; read single values as rough.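 Immortalized human renal angiomyolipoma cells with an empty vector keep TSC2 lost. A luminescent ATP assay measured viability, normalized per plate to vehicle-treated wells, in low-serum medium where TSC2-rescued cells fail to grow.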
# Tested on: 621-102 (TSC2-deficient)
# Test: relative viability vs DMSO (fraction); higher = less cytotoxic
# Conditions: serum: 0.1% FBS, 72 h
SMILES,relative viability (0.0128 nM),relative viability (0.064 nM),relative viability (0.32 nM),relative viability (1.6 nM),relative viability (8 nM),relative viability (40 nM),relative viability (200 nM),relative viability (1000 nM),relative viability (5000 nM)
C[C@H](N[C@@H](CCc1ccccc1)C(=O)O)C(=O)N1CCC[C@H]1C(=O)O [Enalaprilat Dihydrate],0.651,0.659,0.748,0.717,0.787,0.767,0.882,0.769,0.809
NC(=O)c1ccc(N(C(N)=O)c2c(F)cccc2F)nc1-c1ccc(F)cc1F [VX-702],0.963,0.963,1.09,0.784,0.629,0.321,0.762,0.876,0.686
Oc1c2ccccc2c2c3c(cccc13)N=N2,0.987,0.999,0.99,1.07,1.03,0.94,1.04,0.992,0.565
CC(=O)OCC1=C(C(=O)O)N2C(=O)[C@@H](N)[C@H]2SC1 [7-Aminocephalosporanic acid],0.946,1.03,0.944,0.973,0.826,0.846,0.792,0.826,0.741
Cc1c(NC(=O)OC[C@@H]2COCCN2)cn2ncnc(Nc3ccc4c(cnn4Cc4cccc(F)c4)c3)c12,0.841,0.949,0.894,0.938,0.746,0.847,0.793,0.62,0.237
O=c1ncn2nc(Sc3ccc(F)cc3F)ccc2c1-c1c(Cl)cccc1Cl [VX-745],0.65,0.778,0.724,0.718,0.798,0.723,0.708,0.678,0.74
Cc1ccc(-n2nc(C(C)(C)C)cc2NC(=O)Nc2ccc(OCCN3CCOCC3)c3ccccc23)cc1 [BIRB 796 (Doramapimod)],1.03,0.89,0.999,1.04,0.945,0.972,0.951,1.04,1.08
Nc1[nH]cnc2ncnc1-2 [Adenine],0.191,1.46,0.691,0.621,0.0919,1.15,1.04,0.0832,0.0696
OCCN(CCO)c1nc(N2CCCCC2)c2nc(N(CCO)CCO)nc(N3CCCCC3)c2n1 [Dipyridamole],1.24,1.5,1.48,1.25,0.687,0.934,1.17,1.36,0.607
COc1cc(Nc2ncc(F)c(Nc3ccc4c(n3)NC(=O)C(C)(C)O4)n2)cc(OC)c1OC [R406(free base)],1.04,0.819,0.759,0.898,0.886,0.79,0.674,0.512,0.181
Cc1cn([C@H]2C=C[C@@H](CO)O2)c(=O)[nH]c1=O [Stavudine],1.41,1.36,1.59,1.52,0.907,0.93,1.19,1.6,1.25
Clc1ccc(Nc2nnc(Cc3ccncc3)c3ccccc23)cc1 [Vatalanib],0.638,0.79,0.738,0.748,0.664,0.575,0.66,0.457,0.509
CN1CC(=O)N2[C@H](c3ccc4c(c3)OCO4)c3[nH]c4ccccc4c3C[C@@H]2C1=O [Tadalafil],0.957,0.978,0.82,0.948,0.788,0.738,0.476,0.307,0.694
OCCn1cc(-c2ccc3c(c2)CC/C3=N\O)c(-c2ccncc2)n1 [GDC-0879],0.819,0.863,0.887,0.889,0.862,0.875,0.708,0.867,0.843
Cc1ncc([N+](=O)[O-])n1CC(C)O (stereo unspecified) [Secnidazole],0.734,0.812,0.824,0.836,0.803,0.831,0.862,0.8,0.841
COc1ccc([C@]2(C#N)CC[C@@H](C(=O)O)CC2)cc1OC1CCCC1 [Cilomilast],0.892,0.887,0.856,0.851,0.86,0.806,0.915,0.921,0.861
COc1cc2c(cc1O)CC[C@@H]1[C@@H]2CC[C@]2(C)[C@@H](O)CC[C@@H]12 [2-Methoxyestradiol],1.29,1.36,1.42,1.02,0.503,0.526,0.922,0.248,0.0381

SMILES,relative viability (0.0128 nM),relative viability (0.064 nM),relative viability (0.32 nM),relative viability (1.6 nM),relative viability (8 nM),relative viability (40 nM),relative viability (200 nM),relative viability (1000 nM),relative viability (5000 nM)
COC(=O)Nc1nc2cc(Sc3ccccc3)ccc2[nH]1 [Fenbendazole],1.03,0.934,0.951,1.02,0.847,0.087,0.0336,0.0482,0.0283
O=C(/C=C/c1cccc(S(=O)(=O)Nc2ccccc2)c1)NO [Belinostat (PXD101)],1.43,1.7,1.79,1.57,1.13,0.84,0.86,0.269,0.0349
Cc1[nH]c2ccccc2c1CCNCc1ccc(/C=C/C(=O)NO)cc1 [Panobinostat (LBH589)],0.358,0.341,0.454,0.616,0.619,0.0972,0.0118,0.00934,0.0118
CNC(=O)c1cc(Oc2ccc(NC(=O)Nc3cc(C(C)(C)C)nn3-c3ccc4ncccc4c3)c(F)c2)ccn1 [DCC-2036],0.669,0.791,0.74,0.696,0.677,0.451,0.283,0.231,0.00893
CC(C)(C)Cn1c(N)nc2ccc(-c3[nH]c(C(C)(C)C)nc3-c3ccc(F)cc3)nc21,1.08,1.07,1.06,1.09,0.988,0.984,0.935,0.951,0.743
CN1CCN(C2=Nc3cc(Cl)ccc3Nc3ccccc32)CC1 [Clozapine],0.78,0.783,0.716,0.668,0.647,0.618,0.611,0.794,0.705
Nc1[nH]cnc2ncnc1-2 [Adenine hydrochloride],0.775,0.702,0.708,0.732,0.712,0.682,0.667,0.67,0.508
C[C@@H]1CCO[C@H]2Cn3cc(C(=O)NCc4ccc(F)cc4F)c(=O)c(O)c3C(=O)N12,0.69,0.785,0.692,0.776,0.75,0.714,0.604,0.587,0.538
C/C(=C\c1csc(C)n1)[C@@H]1C[C@@H]2O[C@@H]2CCC[C@H](C)[C@H](O)[C@@H](C)C(=O)C(C)(C)[C@@H](O)CC(=O)O1 [Epothilone A],1.15,1.22,1.27,0.376,0.0202,0.0137,0.0161,0.0135,0.0119
Nc1nc(Nc2ccc(S(N)(=O)=O)cc2)nn1C(=O)c1c(F)cccc1F,0.401,0.997,1.03,0.869,0.925,0.999,0.795,0.882,0.0864
O=C(NC1CCNCC1)c1n[nH]cc1NC(=O)c1c(Cl)cccc1Cl [AT7519],0.771,0.868,1.01,0.778,0.731,0.697,0.686,0.032,0.0226
C#Cc1cccc(Nc2ncnc3cc(OCCOC)c(OCCOC)cc23)c1 [Erlotinib HCl (OSI-744)],0.894,0.845,0.918,0.752,0.761,0.65,0.743,0.651,0.513
Cc1nnc(C(C)C)n1C1C[C@H]2CC[C@@H](C1)N2CC[C@H](NC(=O)C1CCC(F)(F)CC1)c1ccccc1 (stereo in doubt) [Maraviroc],0.704,0.771,0.693,0.81,0.755,0.732,0.734,0.835,0.837
CO/N=C(\C(=O)N[C@@H]1C(=O)N2C(C(=O)O)=C(CSC(=O)c3ccco3)CS[C@H]12)c1csc(N)n1 [Ceftiofur HCl],0.598,0.698,0.597,0.568,0.64,0.585,0.657,0.715,0.717
COc1cc(OC)c(/C=C/S(=O)(=O)Cc2ccc(OC)c(NCC(=O)O)c2)c(OC)c1,1.05,1.08,1.01,1.03,1,0.938,0.848,0.6,0.48
O=C(c1ccccc1)c1ccc2n1CCC2C(=O)O (stereo unspecified) [Ketorolac],0.394,0.318,0.509,0.68,0.699,0.708,0.662,0.835,0.837
CCNC(=O)c1noc(-c2cc(C(C)C)c(O)cc2O)c1-c1ccc(CN2CCOCC2)cc1 [NVP-AUY922],0.856,0.972,0.758,0.377,0.0164,0.00924,0.0141,0.00707,0.00583

# As entered above:
# relative viability (1000 nM) with CC(C)(C)Cn1c(N)nc2ccc(-c3[nH]c(C(C)(C)C)nc3-c3ccc(F)cc3)nc21 reads 0.951
# relative viability (5000 nM) with Cc1nnc(C(C)C)n1C1C[C@H]2CC[C@@H](C1)N2CC[C@H](NC(=O)C1CCC(F)(F)CC1)c1ccccc1 (stereo in doubt) [Maraviroc] reads 0.837
